PubChem BioAssay AID1259254 – NCATS, 2017
Shown is an unselected part of about 59,000 reagents tested. About 1,550 of all reagents (2.6%) were called active. 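G2 share is only a proxy for re-replication; each gene was hit by three separate siRNAs, and active genes were retested.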 Unmarked entries are inactive. The numbers tell different reagents against one gene apart. Not all columns of the deposit are shown. Not stated in the record: the amount of reagent.

- Screen: 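Finding genes that stop cells copying their DNA twice in one cycle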 (primary screen)
- Cell system: human HCT116 colorectal cancer cells
- Reagent: single siRNA against human genes
- Duration: 3 days
- Measured: 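Nuclei stained with Hoechst and imaged; cell-cycle phase assigned by DNA content; G2 share scaled per plate, non-targeting siRNA 0%, GMNN siRNA 100%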
- Scale: G2 robust z-score: higher = more G2 cells, more excess DNA replication
- Rule for the call: 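An siRNA counts as active if its G2 robust z-score lies at least 5 MADs above the screen median; here such calls match roughly 38% of GMNN control or more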

gene symbol | reagent | G2 robust z-score
LOC100505502 | 1 | -0.403
LOC100505502 | 2 | -0.364
LOC100505502 | 3 | -0.508
PDPN | 1 | 7.93 (active)
PDPN | 2 | -0.449
PDPN | 3 | 1.17
CFAP299 | 1 | 0.0877
CFAP299 | 2 | 1.6
CFAP299 | 3 | -0.548
GALM | 1 | 1.79
GALM | 2 | -1.36
GALM | 3 | -0.257
FUBP3 | 1 | -0.351
FUBP3 | 2 | -0.707
FUBP3 | 3 | 0.158
TRNP1 | 1 | 0.165
TRNP1 | 2 | -0.84
TRNP1 | 3 | 0.463
TRAF7 | 1 | 0.797
TRAF7 | 2 | 0.197
TRAF7 | 3 | -0.886
EIF3M | 1 | 4.22
EIF3M | 2 | -0.365
EIF3M | 3 | 0.109
CRABP2 | 1 | -1.25
CRABP2 | 2 | 0.212
CRABP2 | 3 | 5.9 (active)
LINC00863 | 1 | -1.08
LINC00863 | 2 | 1.6
LINC00863 | 3 | -0.294

In a second layout: results already given
{"gene symbol": "LOC100505502", "reagent": 3, "G2 robust z-score": -0.508}
{"gene symbol": "PDPN", "reagent": 1, "G2 robust z-score": "7.93 (active)"}
{"gene symbol": "PDPN", "reagent": 2, "G2 robust z-score": -0.449}
